Experimental data as given in patent publication US20120184590A1, “FORMULATIONS OF INDOLE-3-CARBINOL DERIVED ANTITUMOR AGENTS WITH INCREASED ORAL BIOAVAILABILITY” (UNIVERSITY OF KANSAS, priority 2009, published 2012).
The name of at least one read-out is uncertain. Marks after values point to notes of the source that are not given here.

Legend:
[1] = Pharmacokinetics of SR13668 in dogs after i.v. and oral gavage dosing; assay type: in vivo, beagle dogs; conditions: DMSO:PEG300 15:85 v/v, fed
Text: (§1) Four non-naïve male beagle dogs (approximately 3 years of age; Ridglan Farms Inc. Mt. Horeb, Wis.) and four non-naïve male cynomolgus monkeys [cynos (macaca fasicularis); approximately 7 to 8 years of age; Charles River Laboratories, Inc., Houston, Tex.] were used in this study. Prior to experimental initiation for the present study, the attending veterinarian certified that the animals were healthy and free from disease and parasites.
(§2) For both species, each animal was part of each experimental group, with a 7-day interval between treatments to allow for washout of the dosing formulation and its effects. Dosing formulations of SR13668 were administered by oral gavage (intragastric) or intravenous (i.v.) injection as a single dose or once daily for seven consecutive days. Oral to doses were administered at a dosing volume of 5 mL/kg of body weight, while intravenous doses were administered at a dosing volume of 0.5 mL/kg of body weight. […]
(§3) Levels of SR13668 in plasma and blood were measured using a tandem mass to spectrometer (API 3000; Applied Biosystems/MDS Sciex, Foster City, Calif.) equipped with a high performance liquid chromatograph (Agilent 1200; Agilent Technologies, Wilmington, Del.). […]
(§4) A freshly prepared SR13668 standard curve was analyzed along with samples on each day of analysis. […]

[2] = Pharmacokinetics of SR13668 in monkeys after i.v. and oral gavage dosing; assay type: in vivo, cynomolgus monkeys (macaca fasicularis); conditions: DMSO:PEG300 15:85 v/v, fed
Text: as §1, §2, §3, §4

## CCOC(=O)c1ccc2[nH]c3c(OC)c4[nH]c5ccc(C(=O)OCC)cc5c4cc3c2c1 [SR13668, 2,10-dicarbethoxy-6-methoxy-5,7-dihydro-indolo-(2,3-b)carbazole]
[1]; plasma, 93.6 mg/m^2 (4.68 mg/kg) i.v. single dose
  VZ/F: 4.05 ± 0.54^a L/kg
[1]; whole blood, 93.6 mg/m^2 (4.68 mg/kg) iv single dose
  VZ/F: 1.76 ± 0.23^a,h L/kg
[2]; plasma, 84.2 mg/m^2 (7.02 mg/kg) i.v. single dose
  VZ/F: 6.36 ± 2.2^c,d L/kg
[2]; whole blood, 84.2 mg/m^2 (7.02 mg/kg) iv single dose
  VZ/F: 2.63 ± 0.70^c,d,h L/kg
